# Results from one PubChem assay

From PubChem BioAssay record AID504749 (NCATS, 2011).

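Malaria parasite (P. falciparum) lines kept in red blood cells; parasite DNA is measured by SYBR Green fluorescence after lysis, 72 h after compound addition.
Each compound was titrated across a series from about 0.000037 to 29 µM.
The number is the fitted AC50, the concentration giving a half-maximal change in signal; a lower value means higher potency, whether the curve shows a decrease or an increase.
Calls follow the curve class and fit quality: every row here is inconclusive, covering signal-raising curves and weak, poorly fitted, partial or highest-dose-only inhibition curves.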

Values are in µM.
Every entry below has the call inconclusive.
Only part of the assay is shown, chiefly results filed as inconclusive.
Potencies fitted to partial, single-point or poorly fitting curves are rough.

{"structure": "Oc1c(I)cc(I)c2cccnc12", "tested on / at": "7G8", "potency (µM)": "11.22", "remark": "inhibitor, single point"}
{"structure": "Oc1c(I)cc(I)c2cccnc12", "tested on / at": "CP262", "potency (µM)": "13.46", "remark": "inhibitor, single point"}
{"structure": "O=C(CCCN1CCC(O)(c2cccc(C(F)(F)F)c2)CC1)c1ccc(F)cc1", "tested on / at": "CP297", "potency (µM)": "12", "remark": "inhibitor, single point"}
{"structure": "O=C(CCCN1CCC(O)(c2cccc(C(F)(F)F)c2)CC1)c1ccc(F)cc1", "tested on / at": "CP329", "potency (µM)": "19.01", "remark": "inhibitor, single point"}
{"structure": "O=C(CCCN1CCC(O)(c2cccc(C(F)(F)F)c2)CC1)c1ccc(F)cc1", "tested on / at": "PC15", "potency (µM)": "17.78", "remark": "inhibitor, single point"}
{"structure": "O=C(CCCN1CCC(O)(c2cccc(C(F)(F)F)c2)CC1)c1ccc(F)cc1", "tested on / at": "CP305", "potency (µM)": "10.69", "remark": "inhibitor, single point"}
{"structure": "O=C(CCCN1CCC(O)(c2cccc(C(F)(F)F)c2)CC1)c1ccc(F)cc1", "tested on / at": "CP194", "potency (µM)": "15.1", "remark": "inhibitor, single point"}
{"structure": "O=C(CCCN1CCC(O)(c2cccc(C(F)(F)F)c2)CC1)c1ccc(F)cc1", "tested on / at": "CP291", "potency (µM)": "10.69", "remark": "inhibitor, partial curve, poor fit"}
{"structure": "O=C(CCCN1CCC(O)(c2cccc(C(F)(F)F)c2)CC1)c1ccc(F)cc1", "tested on / at": "DIV30", "potency (µM)": "19.01", "remark": "inhibitor, single point"}
{"structure": "O=C(CCCN1CCC(O)(c2cccc(C(F)(F)F)c2)CC1)c1ccc(F)cc1", "tested on / at": "CP269", "potency (µM)": "13.46", "remark": "inhibitor, single point"}
{"structure": "O=C(CCCN1CCC(O)(c2cccc(C(F)(F)F)c2)CC1)c1ccc(F)cc1", "tested on / at": "CP315", "potency (µM)": "13.46", "remark": "inhibitor, partial curve"}
{"structure": "O=C(CCCN1CCC(O)(c2cccc(C(F)(F)F)c2)CC1)c1ccc(F)cc1", "tested on / at": "CP192", "potency (µM)": "10.69", "remark": "inhibitor, partial curve"}
{"structure": "O=C(CCCN1CCC(O)(c2cccc(C(F)(F)F)c2)CC1)c1ccc(F)cc1", "tested on / at": "PC26", "potency (µM)": "12", "remark": "inhibitor, partial curve"}
{"structure": "O=C(CCCN1CCC(O)(c2cccc(C(F)(F)F)c2)CC1)c1ccc(F)cc1", "tested on / at": "CP203", "potency (µM)": "13.46", "remark": "inhibitor, partial curve, poor fit"}
{"structure": "O=C(CCCN1CCC(O)(c2cccc(C(F)(F)F)c2)CC1)c1ccc(F)cc1", "tested on / at": "CP217", "potency (µM)": "11.22", "remark": "inhibitor, single point"}
{"structure": "O=C(CCCN1CCC(O)(c2cccc(C(F)(F)F)c2)CC1)c1ccc(F)cc1", "tested on / at": "CP325", "potency (µM)": "19.01", "remark": "inhibitor, single point"}
{"structure": "O=C(CCCN1CCC(O)(c2cccc(C(F)(F)F)c2)CC1)c1ccc(F)cc1", "tested on / at": "CP185", "potency (µM)": "8.912", "remark": "inhibitor, partial curve"}
{"structure": "O=C(CCCN1CCC(O)(c2cccc(C(F)(F)F)c2)CC1)c1ccc(F)cc1", "tested on / at": "CP252", "potency (µM)": "10", "remark": "inhibitor, single point"}
{"structure": "O=C(CCCN1CCC(O)(c2cccc(C(F)(F)F)c2)CC1)c1ccc(F)cc1", "tested on / at": "CP266", "potency (µM)": "6.746", "remark": "inhibitor, partial curve"}

The first 2 entries again:

Result for Oc1c(I)cc(I)c2cccnc12 [7G8] was potency 11.22 µM (inhibitor, single point).
Result for Oc1c(I)cc(I)c2cccnc12 [CP262] was potency 13.46 µM (inhibitor, single point).